Experiment [1] has as its target T1, FCRL3-3xFLAG (3xFLAG at the intracellular C terminus), in Jurkat T cells (human) (UniProt Q96P31).
T1 sequence: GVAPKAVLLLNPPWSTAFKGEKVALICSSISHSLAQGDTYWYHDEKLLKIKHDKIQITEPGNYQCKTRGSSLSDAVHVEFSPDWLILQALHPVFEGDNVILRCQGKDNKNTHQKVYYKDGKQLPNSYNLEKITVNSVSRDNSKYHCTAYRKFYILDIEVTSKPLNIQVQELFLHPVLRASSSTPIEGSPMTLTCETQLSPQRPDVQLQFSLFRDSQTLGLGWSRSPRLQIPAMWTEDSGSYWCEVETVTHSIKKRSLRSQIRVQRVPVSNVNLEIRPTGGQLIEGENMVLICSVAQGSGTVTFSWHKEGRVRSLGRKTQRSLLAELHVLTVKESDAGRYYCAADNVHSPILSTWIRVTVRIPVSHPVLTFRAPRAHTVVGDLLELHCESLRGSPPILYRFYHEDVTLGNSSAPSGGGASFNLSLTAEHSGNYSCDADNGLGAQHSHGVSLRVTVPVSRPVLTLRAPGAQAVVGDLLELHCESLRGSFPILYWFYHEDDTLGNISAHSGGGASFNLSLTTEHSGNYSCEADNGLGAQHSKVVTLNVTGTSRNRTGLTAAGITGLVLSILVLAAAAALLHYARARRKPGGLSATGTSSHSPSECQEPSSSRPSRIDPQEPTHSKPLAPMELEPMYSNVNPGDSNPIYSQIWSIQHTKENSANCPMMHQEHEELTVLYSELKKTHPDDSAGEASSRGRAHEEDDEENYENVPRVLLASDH
As to the kind of experiment: affinity purification with mass spectrometry; Jurkat cells expressing FCRL3-3xFLAG versus untagged FCRL3; 2 mg lysate, anti-FLAG agarose beads overnight at 4°C; mass spectrometry.

By UniProt entry, the sequences of proteins in these tests, tags left out. Residues count along the entry.
UniProt P07766, residues 23-207: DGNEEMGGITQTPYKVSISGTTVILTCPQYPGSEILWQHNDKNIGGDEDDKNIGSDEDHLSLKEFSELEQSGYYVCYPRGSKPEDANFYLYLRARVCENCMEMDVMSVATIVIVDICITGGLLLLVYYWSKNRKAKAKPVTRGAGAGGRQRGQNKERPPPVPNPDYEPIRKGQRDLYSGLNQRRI
UniProt Q14517, residues 22-4588: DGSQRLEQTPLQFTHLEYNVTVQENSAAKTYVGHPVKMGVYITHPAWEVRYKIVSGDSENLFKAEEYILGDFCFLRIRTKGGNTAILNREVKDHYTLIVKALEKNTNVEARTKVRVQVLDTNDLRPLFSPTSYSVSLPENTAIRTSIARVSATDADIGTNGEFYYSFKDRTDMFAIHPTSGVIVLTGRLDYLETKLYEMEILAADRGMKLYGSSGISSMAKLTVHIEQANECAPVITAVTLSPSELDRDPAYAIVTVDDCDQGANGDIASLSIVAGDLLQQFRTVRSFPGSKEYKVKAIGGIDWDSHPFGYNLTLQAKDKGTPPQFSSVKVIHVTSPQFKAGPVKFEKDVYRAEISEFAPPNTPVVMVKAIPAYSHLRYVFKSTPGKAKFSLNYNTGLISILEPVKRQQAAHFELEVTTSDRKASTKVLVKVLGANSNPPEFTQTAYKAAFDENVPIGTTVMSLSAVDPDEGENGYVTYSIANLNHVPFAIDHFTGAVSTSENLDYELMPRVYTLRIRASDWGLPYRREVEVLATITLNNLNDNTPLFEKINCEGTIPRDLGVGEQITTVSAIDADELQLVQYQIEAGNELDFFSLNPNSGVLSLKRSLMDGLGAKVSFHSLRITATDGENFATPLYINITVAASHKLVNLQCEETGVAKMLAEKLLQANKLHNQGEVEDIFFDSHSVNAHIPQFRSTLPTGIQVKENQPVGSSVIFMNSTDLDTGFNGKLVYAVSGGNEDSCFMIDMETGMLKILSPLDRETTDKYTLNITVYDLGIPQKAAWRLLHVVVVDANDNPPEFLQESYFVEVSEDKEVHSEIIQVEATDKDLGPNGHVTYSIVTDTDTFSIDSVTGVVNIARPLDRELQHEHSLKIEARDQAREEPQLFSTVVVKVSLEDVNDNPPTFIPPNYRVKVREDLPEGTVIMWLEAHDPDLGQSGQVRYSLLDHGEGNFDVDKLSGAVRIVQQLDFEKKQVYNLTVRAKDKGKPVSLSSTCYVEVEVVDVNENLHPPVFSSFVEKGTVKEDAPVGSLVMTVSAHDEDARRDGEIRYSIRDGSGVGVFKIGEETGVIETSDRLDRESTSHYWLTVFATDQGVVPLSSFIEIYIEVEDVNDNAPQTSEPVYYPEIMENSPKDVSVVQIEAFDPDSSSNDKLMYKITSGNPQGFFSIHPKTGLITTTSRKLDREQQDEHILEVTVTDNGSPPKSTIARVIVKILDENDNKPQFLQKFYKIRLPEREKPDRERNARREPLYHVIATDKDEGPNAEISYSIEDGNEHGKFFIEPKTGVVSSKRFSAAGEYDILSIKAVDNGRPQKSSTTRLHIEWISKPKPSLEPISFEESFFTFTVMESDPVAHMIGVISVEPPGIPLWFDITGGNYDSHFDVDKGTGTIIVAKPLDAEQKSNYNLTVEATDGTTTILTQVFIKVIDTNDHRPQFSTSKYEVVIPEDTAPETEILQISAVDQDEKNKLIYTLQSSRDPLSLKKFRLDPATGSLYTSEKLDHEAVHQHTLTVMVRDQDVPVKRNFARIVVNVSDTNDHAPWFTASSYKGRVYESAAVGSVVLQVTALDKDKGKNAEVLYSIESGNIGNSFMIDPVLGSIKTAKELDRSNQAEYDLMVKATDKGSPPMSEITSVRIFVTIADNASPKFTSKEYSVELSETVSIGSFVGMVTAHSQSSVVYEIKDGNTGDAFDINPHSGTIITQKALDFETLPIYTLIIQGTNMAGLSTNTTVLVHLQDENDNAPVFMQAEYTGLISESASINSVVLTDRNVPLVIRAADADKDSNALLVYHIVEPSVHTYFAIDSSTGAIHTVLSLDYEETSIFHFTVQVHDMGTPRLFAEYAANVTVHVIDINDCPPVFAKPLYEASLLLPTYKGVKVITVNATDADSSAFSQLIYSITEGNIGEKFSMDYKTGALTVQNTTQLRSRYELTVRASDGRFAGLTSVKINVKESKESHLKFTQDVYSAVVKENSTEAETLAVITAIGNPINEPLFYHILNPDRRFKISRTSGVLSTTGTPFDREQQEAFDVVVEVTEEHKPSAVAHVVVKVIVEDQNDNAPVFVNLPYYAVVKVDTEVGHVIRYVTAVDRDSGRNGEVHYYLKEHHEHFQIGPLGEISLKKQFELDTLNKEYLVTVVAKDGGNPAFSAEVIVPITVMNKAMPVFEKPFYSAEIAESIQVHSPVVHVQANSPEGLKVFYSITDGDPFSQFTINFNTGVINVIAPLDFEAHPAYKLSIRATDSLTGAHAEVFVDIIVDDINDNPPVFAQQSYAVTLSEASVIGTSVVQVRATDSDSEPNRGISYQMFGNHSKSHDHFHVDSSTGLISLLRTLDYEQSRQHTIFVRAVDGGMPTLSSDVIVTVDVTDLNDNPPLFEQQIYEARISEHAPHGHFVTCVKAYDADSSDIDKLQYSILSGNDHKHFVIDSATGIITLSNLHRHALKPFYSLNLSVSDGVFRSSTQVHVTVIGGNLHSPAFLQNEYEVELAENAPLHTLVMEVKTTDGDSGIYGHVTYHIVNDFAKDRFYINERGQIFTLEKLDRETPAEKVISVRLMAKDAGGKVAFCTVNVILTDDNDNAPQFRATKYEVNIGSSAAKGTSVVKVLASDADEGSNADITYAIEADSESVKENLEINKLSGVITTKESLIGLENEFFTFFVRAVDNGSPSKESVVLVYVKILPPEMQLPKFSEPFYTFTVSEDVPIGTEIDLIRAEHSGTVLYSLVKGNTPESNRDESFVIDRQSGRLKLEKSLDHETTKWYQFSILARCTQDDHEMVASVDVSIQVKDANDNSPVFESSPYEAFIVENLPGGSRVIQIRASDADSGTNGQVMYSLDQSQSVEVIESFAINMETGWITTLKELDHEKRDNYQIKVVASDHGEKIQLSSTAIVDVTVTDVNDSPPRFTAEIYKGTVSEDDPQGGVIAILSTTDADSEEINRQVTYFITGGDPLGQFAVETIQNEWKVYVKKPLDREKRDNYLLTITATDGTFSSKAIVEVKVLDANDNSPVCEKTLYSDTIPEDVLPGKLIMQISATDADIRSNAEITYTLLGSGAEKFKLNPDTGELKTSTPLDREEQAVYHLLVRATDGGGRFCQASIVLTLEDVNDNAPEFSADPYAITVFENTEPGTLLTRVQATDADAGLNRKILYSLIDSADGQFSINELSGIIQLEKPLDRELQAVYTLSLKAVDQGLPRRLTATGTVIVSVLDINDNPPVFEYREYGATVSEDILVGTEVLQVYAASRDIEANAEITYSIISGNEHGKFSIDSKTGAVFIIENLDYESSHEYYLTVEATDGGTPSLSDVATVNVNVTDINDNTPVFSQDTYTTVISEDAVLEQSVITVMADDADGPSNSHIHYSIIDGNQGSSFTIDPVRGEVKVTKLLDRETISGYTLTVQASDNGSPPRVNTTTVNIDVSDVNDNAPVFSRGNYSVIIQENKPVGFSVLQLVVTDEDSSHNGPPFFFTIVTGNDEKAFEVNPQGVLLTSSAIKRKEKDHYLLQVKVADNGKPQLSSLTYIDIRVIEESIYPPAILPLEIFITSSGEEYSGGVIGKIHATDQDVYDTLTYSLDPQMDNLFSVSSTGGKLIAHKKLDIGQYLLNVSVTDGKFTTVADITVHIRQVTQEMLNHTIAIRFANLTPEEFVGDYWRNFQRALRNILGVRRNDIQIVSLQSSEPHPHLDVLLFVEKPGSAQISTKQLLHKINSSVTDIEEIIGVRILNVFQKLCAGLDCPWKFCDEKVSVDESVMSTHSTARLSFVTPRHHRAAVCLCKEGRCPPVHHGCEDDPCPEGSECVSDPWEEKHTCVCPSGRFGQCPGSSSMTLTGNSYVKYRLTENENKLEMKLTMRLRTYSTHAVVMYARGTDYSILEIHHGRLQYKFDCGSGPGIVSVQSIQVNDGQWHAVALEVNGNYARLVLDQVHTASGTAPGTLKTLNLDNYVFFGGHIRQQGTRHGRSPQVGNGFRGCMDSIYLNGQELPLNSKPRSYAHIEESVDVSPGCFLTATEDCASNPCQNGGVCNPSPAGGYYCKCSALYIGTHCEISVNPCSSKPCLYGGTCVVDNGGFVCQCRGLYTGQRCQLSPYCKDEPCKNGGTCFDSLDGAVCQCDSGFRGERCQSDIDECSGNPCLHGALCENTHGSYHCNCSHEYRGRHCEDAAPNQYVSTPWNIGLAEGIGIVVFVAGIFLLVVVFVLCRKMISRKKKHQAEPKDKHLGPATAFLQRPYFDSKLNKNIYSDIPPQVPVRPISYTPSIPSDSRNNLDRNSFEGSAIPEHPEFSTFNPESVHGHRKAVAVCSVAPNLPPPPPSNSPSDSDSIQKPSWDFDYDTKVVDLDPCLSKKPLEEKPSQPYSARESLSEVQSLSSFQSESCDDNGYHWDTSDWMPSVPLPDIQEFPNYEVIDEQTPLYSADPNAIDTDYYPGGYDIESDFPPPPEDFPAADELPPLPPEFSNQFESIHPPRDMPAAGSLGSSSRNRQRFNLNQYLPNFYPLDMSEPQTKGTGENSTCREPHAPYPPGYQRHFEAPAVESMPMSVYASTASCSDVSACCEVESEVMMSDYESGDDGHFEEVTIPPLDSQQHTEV
UniProt P43403: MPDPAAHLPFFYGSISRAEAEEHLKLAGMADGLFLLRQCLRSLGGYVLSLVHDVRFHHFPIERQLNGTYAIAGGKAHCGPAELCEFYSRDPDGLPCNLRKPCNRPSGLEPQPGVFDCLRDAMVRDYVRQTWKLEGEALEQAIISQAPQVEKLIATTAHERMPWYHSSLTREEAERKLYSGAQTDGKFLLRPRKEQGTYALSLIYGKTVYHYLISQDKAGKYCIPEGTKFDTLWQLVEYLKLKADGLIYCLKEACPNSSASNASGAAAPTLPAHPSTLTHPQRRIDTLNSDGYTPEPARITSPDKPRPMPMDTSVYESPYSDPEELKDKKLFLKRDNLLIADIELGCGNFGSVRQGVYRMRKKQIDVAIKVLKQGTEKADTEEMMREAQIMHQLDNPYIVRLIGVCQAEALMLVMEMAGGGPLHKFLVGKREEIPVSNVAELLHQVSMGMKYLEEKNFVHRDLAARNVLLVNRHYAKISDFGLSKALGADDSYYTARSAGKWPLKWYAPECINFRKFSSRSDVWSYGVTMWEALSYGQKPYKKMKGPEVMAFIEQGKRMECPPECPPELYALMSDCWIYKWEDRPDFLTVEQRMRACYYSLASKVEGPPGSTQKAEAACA

For experiment [2], the target named is T2, ubiquitin-associated and Src-homology 3 (SH3) domain containing A (UBASH3A), endogenous in Jurkat T cells (human (endogenous in Jurkat)) (UniProt P57075).
T2 sequence: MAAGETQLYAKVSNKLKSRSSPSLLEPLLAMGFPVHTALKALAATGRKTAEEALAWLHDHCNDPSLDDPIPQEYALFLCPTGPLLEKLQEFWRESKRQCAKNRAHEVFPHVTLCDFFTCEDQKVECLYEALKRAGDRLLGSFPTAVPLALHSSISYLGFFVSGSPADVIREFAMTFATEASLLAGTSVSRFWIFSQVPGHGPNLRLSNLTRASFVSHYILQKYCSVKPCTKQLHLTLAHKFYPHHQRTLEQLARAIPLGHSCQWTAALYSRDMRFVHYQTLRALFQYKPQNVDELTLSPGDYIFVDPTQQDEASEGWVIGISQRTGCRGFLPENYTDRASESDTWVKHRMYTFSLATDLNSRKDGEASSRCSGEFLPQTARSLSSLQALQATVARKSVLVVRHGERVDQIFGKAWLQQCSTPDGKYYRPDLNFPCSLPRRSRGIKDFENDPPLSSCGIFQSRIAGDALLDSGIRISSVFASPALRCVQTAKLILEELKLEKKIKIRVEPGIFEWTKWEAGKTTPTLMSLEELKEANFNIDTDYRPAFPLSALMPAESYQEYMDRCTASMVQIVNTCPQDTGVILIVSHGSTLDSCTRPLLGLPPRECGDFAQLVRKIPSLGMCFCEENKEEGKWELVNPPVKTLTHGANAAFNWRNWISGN
As to the kind of experiment: proximity labelling; Jurkat cells expressing FCRL3 or the EGFR-FCRL3 C140 aa chimera (or LV-empty controls); cells fixed, permeabilised with digitonin, anti-UBASH3A antibody, Protein A-TurboID and biotin; streptavidin pull-down and mass spectrometry.

The target in experiment [3] is T3, Fc receptor-like protein 3 (FCRL3), full-length, untagged, in Jurkat T cells (human) (UniProt Q96P31).
T3 sequence: T1 sequence
As to the kind of experiment: affinity purification with mass spectrometry; Jurkat cells expressing FCRL3 (full length or truncations) versus empty vector; 2 mg lysate (25 mM Tris-HCl pH 8.0, 250 mM NaCl, 0.2% NP-40), IP with rabbit polyclonal anti-FCRL3 antibody and protein A magnetic beads overnight at 4°C; mass spectrometry.

The target in experiment [4] is T3, Fc receptor-like protein 3 (FCRL3), full-length, untagged, in Jurkat T cells (human). As to the kind of experiment: proximity labelling; FCRL3-expressing versus empty-vector Jurkat cells; mouse monoclonal anti-FCRL3 antibody, digitonin permeabilisation, Protein A-TurboID and biotin (30 min, room temperature); streptavidin pull-down and mass spectrometry.
For experiment [5] the target is unchanged. Described as above. This is another data set of the same source.
The target of experiment [6] is T4, FCRL3 truncated in the intracellular domain, 93 aa tail (human) (UniProt Q96P31).
T4 sequence: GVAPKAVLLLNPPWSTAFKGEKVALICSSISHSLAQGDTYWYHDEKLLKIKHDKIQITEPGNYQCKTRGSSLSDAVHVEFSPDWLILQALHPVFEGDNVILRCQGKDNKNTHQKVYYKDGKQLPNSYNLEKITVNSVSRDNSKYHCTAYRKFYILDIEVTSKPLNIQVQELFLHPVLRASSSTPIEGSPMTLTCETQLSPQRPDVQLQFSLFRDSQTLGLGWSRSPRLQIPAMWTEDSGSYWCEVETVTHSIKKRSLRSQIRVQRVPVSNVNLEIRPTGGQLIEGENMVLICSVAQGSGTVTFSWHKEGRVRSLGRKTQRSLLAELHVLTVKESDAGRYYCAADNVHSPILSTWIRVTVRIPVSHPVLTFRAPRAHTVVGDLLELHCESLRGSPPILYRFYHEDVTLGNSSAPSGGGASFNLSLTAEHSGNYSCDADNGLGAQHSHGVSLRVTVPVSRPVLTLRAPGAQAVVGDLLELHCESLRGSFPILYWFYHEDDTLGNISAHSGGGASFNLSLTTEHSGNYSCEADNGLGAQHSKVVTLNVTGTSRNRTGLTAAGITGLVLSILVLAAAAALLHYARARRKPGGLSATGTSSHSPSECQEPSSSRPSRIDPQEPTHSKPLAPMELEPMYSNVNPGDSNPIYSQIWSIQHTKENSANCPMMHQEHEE
Put plainly: affinity purification with mass spectrometry; Jurkat cells expressing FCRL3 (full length or truncations) versus empty vector; 2 mg lysate (25 mM Tris-HCl pH 8.0, 250 mM NaCl, 0.2% NP-40), IP with rabbit polyclonal anti-FCRL3 antibody and protein A magnetic beads overnight at 4°C; mass spectrometry.

Experiment [7] deals with T3, Fc receptor-like protein 3 (FCRL3), full-length, untagged, in Jurkat T cells (human). The description is as above. This is another data set of the same source.

Results are given in words; binding and its absence hold for the method and conditions named. In cells and extracts the contact can be indirect. These calls come from enrichment with a bait or labelling near it, and not all partners need be listed. For some assays here: Where a sequence is shown, tags or fusion partners need not be part of it.

For “CD3ε, endogenous in Jurkat T cells (from UniProt P07766 23-207)”, the binding entry in experiment [1], in experiment [2] and in experiment [3] was “binds” in each case.
With “FAT atypical cadherin 1 (FAT1), endogenous in Jurkat T cells (from UniProt Q14517 22-4588)”, the binding result in experiment [1], in experiment [4] and in experiment [3] was “binds” in each case.
For “UBASH3B, endogenous in Jurkat T cells (from UniProt Q8TF42 1-649) (enzyme)”, the binding result in experiment [2] is listed as “binds”.
On the same count and under the same terms, the result for “ZAP70, endogenous in Jurkat T cells (from UniProt P43403 1-619) (enzyme)” reads “binds”.

B1: Fc receptor-like protein 3 (FCRL3), full-length, untagged, in Jurkat T cells (receptor, UniProt Q96P31 18-734)
chain: T1 sequence
Turning to B1, the binding entry in experiment [2] is given as “binds”.

B2: SHP2-interacting adaptor protein 1, endogenous in Jurkat T cells (protein, UniProt Q9Y3P8 25-196)
chain: DNCTDLLALGIPSITQAWGLWVLLGAVTLLFLISLAAHLSQWTRGRSRSHPGQGRSGESVEEVPLYGNLHYLQTGRLSQDPEPDQQDPTLGGPARAAEEVMCYTSLQLRPPQGRIPGPGTPVKYSEVVLDSEPKSQASGPEPELYASVCAQTRRARASFPDQAYANSQPAAS
With B2, the binding result in experiment [5] was “binds”.

B3: ubiquitin-associated and Src-homology 3 (SH3) domain containing A (UBASH3A), endogenous in Jurkat T cells (enzyme, UniProt P57075 1-661)
chain: T2 sequence
As to B3, the binding result in experiment [1], in experiment [5], in experiment [6] and in experiment [7] was “binds” throughout.

The values above are taken from article PMC12524113.
